In PubChem BioAssay AID2417 (National Center for Advancing Translational Sciences (NCATS), 2010):
Among all 140,000 compounds or so, about 4,300 (3.1%) were called active. The shares of active, inactive and inconclusive entries below differ from those in the screen.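 How the source made its calls: active means readout at or below -70, meaning at least 70% loss of cells showing the perinucleolar compartment, a nuclear body marking cancer cells; inconclusive means readout between -30 and a set limit; inactive means the rest.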

Experiment: High Content Assay for Compounds that inhibit the Assembly of the Perinucleolar Compartment
Conditions: PC3M PTB-GFP, PNC prevalence imaging, 16 h; at 10 µM; stronger effect = lower value
Text: High Content Assay for Compounds that inhibit the Assembly of the Perinucleolar Compartment NIH Chemical Genomics Center [NCGC] NIH Molecular Libraries Probe Centers Network [MLPCN] MLPCN Grant: MH082371-01A2 Assay Submitter (PI): Sui Huang, Northwestern University, Feinberg School of Medicine, Cell and Molecular Biology, Chicago, Illinois. The perinucleolar compartment (PNC) is a non-membrane-bound nuclear subdomain that is associated with but structurally distinct from the nucleolus. The PNC is a heritable trait, in which the number of PNCs per cell in daughter cells often mimics that of their mother cells. The PNC is heterogeneous in shape, is stable through interphase, disassembles during mitosis, and reassembles in early G1. The PNC is concentrated with newly synthesized RNA polymerase III (pol III) RNAs (MRP RNA, RNAse P H1 RNA, hY RNAs[hY1, 2, 5], Alu RNA, and SRP [7SL] RNA) and RNA binding proteins (nucleolin, PTB, CUG-BP, KSRP, Raver1, Raver2, and Rod). […] Extensive in vitro studies have shown that the PNC is unique to tumor cells and preferentially forms in tumor cells derived from solid tissues. Examination of cancer cell lines from various origins and malignant capacities has shown that PNC prevalence correlates with the malignancy of tumors and has the potential to be developed as a pan-cancer prognostic marker. […] Although the PNC is associated with a DNA locus and a handful of components have been identified, much remains to be investigated regarding the structure and function of the PNC and its mechanistic link to cancer. We have previously shown that PNC prevalence reduction is a valid strategy to identify compounds that can be used to study the structure and function of the PNC. It is necessary, however, to create a screening platform that is able to test a large number of compounds in an automated fashion. Here we report the development and robustness of an automated whole-cell phenotypic image-based screening assay that is capable of identifying such compounds.
PNC High Content Imaging Assay Procedure: 1. Cells at a density of 75-90% confluency in T175 flasks were harvested using 7 ml TrypLE Express cell dissociation reagent. After dissociation (5 minutes room temperature incubation) 10 ml of complete media was added to the TrypLE/cell suspension. The liquid was transferred to a 50 ml Conical tube and cells were pelleted at 1000 RPM for 5 min. Supernatant was removed and cells were resuspended to a final density of 150-200 cells/ul in complete media. 2. Cells were plated in 5 ul volume (750-1000 cells/well) into 1536 well Black uclear Aurora Low Base plates and allowed to recover and adhere at 37 C in a humidified 5% CO2 incubator for 4 hours. 3. After 4 hour incubation, compound libraries (23 nl of […] in columns 5-48) were transferred to the plates in duplicate using a 1536 well pintool. Camptothecin positive control (59 uM final) was added to column 2 and 1:3 dilutions of camptothecin was added to column 3. DMSO negative controls were present in columns 1 and 4. 4. After a 16 hour incubation in the 37 C incubator, cells were fixed by the addition of 4 ul of 6% EM grade paraformaldehyde (containing 0.1% triton X 100) directly to the cells. The plates were incubated at room temperature for 20 minutes. The liquid was removed using a 32 channel Kalypsys aspirator and the fixed cells were washed twice with 5 ul PBS followed by a final addition of 5 ul PBS containing 1 ug/ml Hoechst 33342. 5. Fixed plates were sealed and sotred at 4C until imaged. 6. Plates were imaged on an InCell 1000 automated microscope using a 20 x objective, a standard FITC filter set, no camera binning, and an exposure time of ~100-150 msec/well. 7. Data analysis. PNC prevalence was determined using the Multitarget analysis module from InCell Workstation software (V3.5 ) and analysis was run on a quad core workstation using the Incell Developer Toolbox (V1.7). […]

SMILES | activity change (PNC), negative = inhibition
CCN(CC)C(=O)c1ccc(NC(=O)Cn2nc(C)c3ccccc3c2=O)cc1 | inconclusive: -68.4%
CC1(C)CN=C(Nc2ccccc2C(F)(F)F)S1 | inconclusive: -56.5%
CN1C(=O)C(=Cc2ccc(N3CCCCC3)o2)C(=O)N(C)C1=S | active: -100%
CN(C)c1ccc(NC(=O)CN2C(=O)CN=C(c3ccccc3)c3ccccc32)cc1 | inactive: 20.8%
CCOP(=O)(OCC)C1(O)C(=O)Nc2ccccc21 (stereo unspecified) | inactive: -18.4%
COCCCn1c(N)c(C(=O)NCCC(C)C)c2nc3ccccc3nc21 | inactive: 61.1%
CC(C)C[C@H]1C(=O)N2CCCC2[C@]2(O)O[C@](NC(=O)[C@@H]3C=C4c5cccc6[nH]cc(c56)CC4N(C)C3)(C(C)C)C(=O)N12 (stereo partly specified) | inactive: -5.29%
CC(=O)c1ccc(OC(NC(=O)c2ccco2)C(Cl)(Cl)Cl)cc1 (stereo unspecified) | inactive: 52.1%
O=C1/C(=C\c2ccc3c(c2)OCO3)N2CCC1CC2 | inconclusive: -38.1%
CCC1(c2ccccc2)C(=O)N(COC)C(=O)N(COC)C1=O | inconclusive: -55.5%
CCCCCCn1c(O)c(C=NC2CCCCC2N)c(=O)[nH]c1=O (stereo unspecified) | inconclusive: -46.5%
O=C(CN1CCN(Cc2ccc(Cl)cc2)C1=O)N1CCC2(CC1)OCCO2 | inactive: 46.1%
O=c1c2ccccc2nc(-c2ccc(-c3ccccc3)cc2)n1-c1ccncc1 | inconclusive: -32.9%
COc1ccc(CN2CCN(C(=O)Cc3ccccc3)CC2)c(OC)c1 | inactive: 11%
CN(C)CC1CSCCC1(O)c1cccc(Cl)c1 (stereo unspecified) | inconclusive: -30.8%
O=C(CF)NC(Nc1cccc2cccnc12)C(Cl)(Cl)Cl (stereo unspecified) | inconclusive: -44.7%
O=c1[nH]c(O)c(/C=C2\C=NN=C2c2ccccc2)c(=O)[nH]1 | inconclusive: -32.7%
O=C(OCC(=O)c1ccc([N+](=O)[O-])cc1)/C(=C/c1ccc(Cl)cc1)NC(=O)c1ccccc1 | inconclusive: -35.7%
O=C1NC(=O)C2(Cc3c(nc4ccccn4c3=O)N3CCCCCC32)C(=O)N1Cc1ccccc1 (stereo unspecified) | inconclusive: -44.8%
CCc1cccc2c(C#N)cn(CC(=O)N3CCOCC3)c12 | inconclusive: -33.6%
CCCCn1c(O)c(/C=N/N2CCCCC2c2cccnc2)c(=O)[nH]c1=S (stereo unspecified) | inconclusive: -40.8%
CCN(CC)C(=O)c1ccc(NC(=O)CSc2nnnn2-c2cc(OC)ccc2OC)cc1 | inactive: 42%
CC(N)C(=O)c1ccco1 (stereo unspecified) | inconclusive: -46%

SMILES | activity change (PNC), negative = inhibition
COc1cc2c(cc1O)C[C@H]1NCCc3cc4c(c-2c31)OCO4 | inactive: 12.9%
O=c1[nH]c(=O)n(Cc2ccco2)c(O)c1C=NC1CC1 | inactive: 32%
CN1C(=O)C(C2(C#N)CCCCC2)C(=O)N(C)C1=O | inconclusive: -71.6%
Cc1cc(/C=C2\C(=O)NC(=S)N(C)C2=O)c(C)n1C1CCCCC1 | inconclusive: -49.3%
O=P(NCc1ccccc1)(Oc1ccccc1)Oc1ccccc1 | inconclusive: -52.4%
C/C(=N\N1CCN(C)CC1)c1c(O)[nH]c(=O)[nH]c1=O | active: -121%
Cc1cc(OCC(=O)OC(C)C)c2c3c(c(=O)oc2c1)CCCC3 | inconclusive: -76.7%
CCC(=Nc1ccc(OC)cc1OC)c1c(O)n(C2CCCCC2)c(=O)[nH]c1=O | inactive: 28.6%
N=C(N)c1c(O)n(C2CCCCC2)c(=O)n(C2CCCCC2)c1=O | inactive: 26%
Clc1cccc(CN2CCCCC2c2cccnc2)c1 (stereo unspecified) | inconclusive: -55.7%
N#Cc1ccccc1Cn1cc(C(=O)c2ccco2)c2ccccc21 | inconclusive: -50.4%
O=c1c2ccccc2nc(-c2ccco2)n1-c1nccs1 | inconclusive: -48.3%
CCOc1ccc(NC(=O)c2ccc(NC(=O)COC(=O)Cc3ccccc3)cc2)cc1 | inconclusive: -38.8%
O=C(CN1CCOCC1)c1cccc2ccccc12 | inactive: 27%
CC1(C)NCCN2C(=O)CSC21 (stereo unspecified) | inconclusive: -52.5%
Cn1c(=O)c2c(nc(N/N=C/c3c(O)n(-c4ccccc4)c(=S)[nH]c3=O)n2C)n(C)c1=O | inactive: 16.4%
COC(=O)C1=Nc2ccccc2/C1=C\c1c(O)n(-c2cc(OC)ccc2OC)c(=O)[nH]c1=O | inconclusive: -43%
CC(C)CN(CC(C)C)c1ccc(C=C2C(=O)NC(=S)NC2=O)cc1[N+](=O)[O-] | inactive: 4.46%
O=c1[nH]c(=O)n(Cc2ccco2)c(O)c1/C=N/N1CCCCC1 | inconclusive: -52.4%
O=C(NC(=C(Cl)Cl)P(=O)(c1ccccc1)c1ccccc1)c1ccccc1 | inconclusive: -33.9%
CC1CCCN(C(=O)CCl)C1 (stereo unspecified) | active: -116%
CC[n+]1c(/C=C/N(C)c2ccccc2)sc2ccc(Cl)cc21 | inactive: 5.62%
C=CCc1cc(C=C2C(=O)N(C)C(=O)N(C)C2=O)cc(OCC)c1OCc1ccccc1 | active: -114%

Copied from the list:
Value for `O=C1/C(=C\c2ccc3c(c2)OCO3)N2CCC1CC2` under activity change (PNC), negative = inhibition: inconclusive: -38.1%
Value for `O=c1[nH]c(=O)n(Cc2ccco2)c(O)c1C=NC1CC1` under activity change (PNC), negative = inhibition: inactive: 32%
Value for `O=c1[nH]c(O)c(/C=C2\C=NN=C2c2ccccc2)c(=O)[nH]1` under activity change (PNC), negative = inhibition: inconclusive: -32.7%

Remaining list, next part:

SMILES | activity change (PNC), negative = inhibition
COc1ccc(NC(=O)c2c(C)nn(Cc3ccccc3Cl)c2Cl)cc1Cl | inconclusive: -40%
CNC(C(=O)c1ccccc1)C(OC)c1ccccc1 (stereo unspecified) | inactive: 43.3%
CCC(=O)Nc1ccc(N2CCN(CC)CC2)c(Cl)c1 | inconclusive: -38.8%
CCn1cc(C(=O)c2cccs2)c2ccccc21 | inactive: 18.9%
CCC(=NCCCN(C)C)c1c(O)n(-c2ccc(OC)cc2)c(=O)[nH]c1=O | inconclusive: -55.9%
Cc1sc2nc(COC(=O)Cc3ccccc3)[nH]c(=O)c2c1C | inconclusive: -76.4%
c1ccc2c(c1)CC1CNCc3cccc(c31)S2 (stereo unspecified) | active: -117%
Cc1cc(Cl)ccc1OCCCC(=O)NCc1cccs1 | inactive: 24.3%
O=c1[nH]c(=O)n(Cc2ccccc2)c(O)c1C=NCCN1CCNCC1 | inactive: 7.79%
CC(C)n1c(=O)c(C=Nc2ccc(F)cc2)c(O)n(Cc2ccco2)c1=O | inconclusive: -30.7%
Cc1ccc(N2C(=O)NC(=O)/C(=C\c3ccc(N4CCOCC4)cc3)C2=O)cc1 | inconclusive: -36.6%
c1ccc(CNCCc2ccc3c(c2)OCO3)nc1 | inconclusive: -39.9%
NCC(CC(=O)O)c1ccc(Cl)cc1 (stereo unspecified) | inconclusive: -39.5%
Cc1nnc(SCc2nc3ccccc3c(=O)n2-c2ccccc2Cl)n1N | inconclusive: -61.5%
Cc1cc(N2C(=O)C3CCCN3C2c2sccc2C)no1 (stereo unspecified) | inactive: -1.41%
CCC(CC)C1C(C#N)=C(N)Oc2c1c(=O)oc1ccccc21 (stereo unspecified) | inconclusive: -59.3%
Cc1ccc(/C=C2/C(=O)NC(=O)N(CC3CCCO3)C2=O)s1 (stereo unspecified) | inactive: -3.43%
N/C(=N\[N+](=O)[O-])N/N=C/c1ccc(O)cc1 | inconclusive: -31.3%
Clc1ccccc1CN1CCN(c2ccccc2Cl)CC1 | inconclusive: -31%
CCCn1nc2ccccc2c1P(=O)(N1CCOCC1)N1CCOCC1 | active: -90.1%
COc1ccc(C(=O)C2CN(C)CC2C(=O)c2ccc(OC)cc2)cc1 (stereo unspecified) | inconclusive: -67.7%
NCC1(c2ccc3c(c2)OCCO3)CCCC1 | inconclusive: -31.9%
Cc1sc2ncn(CC(=O)NCC(=O)N3CCC4(CC3)OCCO4)c(=O)c2c1C | inconclusive: -57.3%

Some of the entries so far, in markdown:

| SMILES | activity change (PNC), negative = inhibition |
| --- | --- |
| CCC(=O)Nc1ccc(N2CCN(CC)CC2)c(Cl)c1 | inconclusive: -38.8% |
| CCn1cc(C(=O)c2cccs2)c2ccccc21 | inactive: 18.9% |

(list continues)

SMILES | activity change (PNC), negative = inhibition
CC1=NN(c2ccccc2)C(=O)C1/C=C1\C(=O)NC(=O)N(c2cc(C)cc(C)c2)C1=O (stereo unspecified) | inactive: -15.2%
COc1ccc(C(=O)CC2C(=O)N(C)C(=O)N(C)C2=O)cc1 | inconclusive: -38.3%
CN1C(=O)C(=Cc2ccccc2OCc2ccc(Cl)cc2)C(=O)N(C)C1=O | inactive: 46.9%
CC1=NN(c2ccccc2)C(=O)C1/C=C1/C(=O)NC(=O)N(c2cccc(C)c2)C1=O (stereo unspecified) | inconclusive: -51.7%
Cc1nc2nc(SCC(=O)N3CCC4(CC3)OCCO4)nn2c(C)c1Cc1ccccc1 | inconclusive: -47.7%
N#CC(C#N)=Cc1ccc(-c2ccccc2)o1 | inactive: 43.3%
CCN1CCN(C(=O)COc2ccc(S(=O)(=O)N(C)Cc3ccccc3)cc2)CC1 | inactive: -4.22%
Cc1occc1C(=O)N1CCC2(CC1)OCCO2 | inconclusive: -60.1%
O=C1C2CCCN2C(c2cccs2)N1c1ccccn1 (stereo unspecified) | inconclusive: -37.3%
Cc1cc([P+](=O)O)c(C)n1-c1ccc(Br)cc1 | inactive: 10.9%
Cc1ccc(-n2c(O)c(/C=N/NC(=O)c3ccncc3)c(=O)[nH]c2=O)cc1C | inconclusive: -40.7%
CCN(CC)c1ccc(/C=C2/C(=O)NC(=O)N(Cc3ccco3)C2=O)cc1 | inactive: -4.9%
O=c1c2ccccc2nc(CN2CCOCC2)n1-c1ccccc1F | inconclusive: -57.9%
CCn1nc(-c2ccccc2)nc2c(=O)n(C)c(=O)nc1-2 | active: -100%
CCCCN1C(=O)/C(=C/C=C/c2ccco2)C(=O)NC1=S | active: -87.7%
Cc1nonc1-c1nc(-c2nonc2N)n[nH]1 | inactive: -25.7%
Cc1ccc(NP(=O)(Oc2ccccc2F)Oc2ccccc2F)cc1C | inconclusive: -33.4%
CC(=O)Nc1cc(C(=O)N2CCC3(CC2)OCCO3)ccc1Sc1ccc(C)cc1 | inconclusive: -35.8%
CCCCn1c(=O)c(C=Nc2cc([N+](=O)[O-])ccc2OC)c(O)n(CCCCl)c1=O | inconclusive: -42%
CCOC(=O)c1c(C)n(C(C)C)c2ccc(OC(=O)c3ccc(N4C(=O)CCC4=O)cc3)cc12 | inconclusive: -46.1%
COc1ccc(C2NCc3ccc4c(c3-n3cccc32)OCO4)cc1O (stereo unspecified) | active: -108%
COCCNC(=O)c1c(NC(=O)c2ccco2)n(Cc2ccccc2)c2nc3ccccc3nc12 | inconclusive: -47.8%
